# Laboratory results as given in PubChem BioAssay AID2517 (National Center for Advancing Translational Sciences (NCATS), 2010).
# Sequences of proteins named here, by UniProt entry; tags and fusion partners are left off.
# UniProt P27695, whole entry, looked up: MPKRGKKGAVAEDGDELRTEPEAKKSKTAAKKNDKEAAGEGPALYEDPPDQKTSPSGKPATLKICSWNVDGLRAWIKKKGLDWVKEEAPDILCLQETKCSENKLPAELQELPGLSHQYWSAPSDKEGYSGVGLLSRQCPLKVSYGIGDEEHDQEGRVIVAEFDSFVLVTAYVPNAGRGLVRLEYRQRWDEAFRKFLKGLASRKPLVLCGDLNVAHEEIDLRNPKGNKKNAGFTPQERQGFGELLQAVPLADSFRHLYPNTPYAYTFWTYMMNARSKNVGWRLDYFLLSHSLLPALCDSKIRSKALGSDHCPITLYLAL
# Out of some 350,000 compounds screened, about 1,200 (0.34%) were called active. The shares of active, inactive and inconclusive entries below differ from those in the screen. Calls follow the shape of the dose curve; as a rule, active = well fitted inhibition curve with a large enough effect; inconclusive = small, poorly fitted or top-dose-only effect; inactive = no such curve, though single readings can be large or run the other way. Where the call is inconclusive, the potency comes from a doubtful curve fit.
# Target: DNA repair nuclease/redox regulator APEX1 (Homo sapiens) (UniProt P27695)
# Test: qHTS Assay for Inhibitors of the Human Apurinic/apyrimidinic Endonuclease 1 (APE1); also: nearly all actives have a fitted effect of over 55% in size
# Settings: recombinant APE1, TAMRA/BHQ-2 abasic DNA cleavage fluorescence; series mostly up to 65.8 µM
# In short: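 Activity was derived from the fluorescence gain between first and third kinetic reads (60 s intervals, ex 525/em 598 nm) after 50 nM THF-abasic TAMRA/BHQ-2 duplex was added to 0.75 nM APE1 preincubated 15 min with compound.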
# Potency is read from the fitted curve at half-maximal effect.
row,SMILES,Potency
1,Cc1ccc(C)c(S(=O)(=O)Nc2ccc3scnc3c2)c1,"inconclusive: 44.7 µM [inhibitor, single point]"
2,COC(=O)Nc1ccc(S(=O)(=O)N2CCCCC2C(=O)O)cc1 (centres undefined),inactive
3,O=C(CN1CCc2ccccc21)NC(=O)NC1CCCCC1,"inconclusive: 44.7 µM [inhibitor, single point]"
4,CCCn1c(=N)n(CC(O)COc2cccc(C)c2)c2ccccc21 (centres undefined),"inconclusive: 20 µM [inhibitor, partial curve, poor fit]"
5,COCCN1C(=O)N(c2ccc(OC)cc2)C(=O)C1CC(=O)Nc1cccc(F)c1 (centres undefined),"inconclusive: 7.52 µM [inhibitor, single point]"
6,O=C(O)c1ccccc1C(=O)c1ccc2c(c1)N(Cc1cccc(F)c1)C(=O)CO2,"inconclusive: 39.8 µM [inhibitor, single point]"
7,COc1cc(/C=N/Nc2nc(C)nc3c2cnn3-c2ccccc2)ccc1O,inactive
8,COC(=O)c1c(NC(=O)Cc2cccs2)sc2c1CCCC2,"inconclusive: 35.5 µM [inhibitor, single point]"
9,O=C(O)c1ccccc1Cl,inactive
10,O=C1C2C3C=CC(C3=C3CCCCC3)C2C(=O)N1Cc1ccccc1 (centres undefined),"inconclusive: 1.12 µM [inhibitor, full curve, poor fit]"
11,COc1ccc(NC(=O)c2ccccc2O)c(OC)c1,"inconclusive: 3.98 µM [inhibitor, partial curve]"
12,OC(CNCc1ccc(Cl)c(Cl)c1)c1ccccc1 (centres undefined),"inconclusive: 8.91 µM [inhibitor, single point]"
13,COc1ccccc1OCCn1c(SCC(N)=O)nc2ccccc21,"inconclusive: 15 µM [inhibitor, single point]"
14,Cc1[nH]c(=O)[nH]c1CN1CCCCC1,"inconclusive: 15.8 µM [inhibitor, partial curve, poor fit]"
15,O=[N+]([O-])c1ccc2c(c1N1CCCCC1)=NC1(CCCCC1)[N+]=2[O-],inactive
16,COc1ccccc1NC(=S)N(Cc1cccnc1)Cc1ccco1,"inconclusive: 0.355 µM [inhibitor, full curve, poor fit]"
17,CCOc1ccc(Nc2nc(Cc3nnc(SCC(=O)O)o3)cs2)cc1,"inconclusive: 31.6 µM [inhibitor, single point]"
18,C[C@H](NC(=O)c1nc[nH]c1C(=O)NC(c1ccccc1)c1ccccc1)C(=O)OC(C)(C)C,"inconclusive: 28.2 µM [inhibitor, partial curve]"
19,C[C@@H](NC(=O)c1nc[nH]c1C(=O)N[C@@H](Cc1ccccc1)C(=O)OCc1ccccc1)c1ccccc1,inactive

# Already shown: an excerpt of the list.
row,SMILES,Potency
10,O=C1C2C3C=CC(C3=C3CCCCC3)C2C(=O)N1Cc1ccccc1 (centres undefined),"inconclusive: 1.12 µM [inhibitor, full curve, poor fit]"
11,COc1ccc(NC(=O)c2ccccc2O)c(OC)c1,"inconclusive: 3.98 µM [inhibitor, partial curve]"
